# In publication doi:10.1101/2024.06.14.598999 (bioRxiv, 2024):
# Protein sequences, listed by entry. Tags and fused reporters are not part of them.
# UniProt Q96JI7, whole entry: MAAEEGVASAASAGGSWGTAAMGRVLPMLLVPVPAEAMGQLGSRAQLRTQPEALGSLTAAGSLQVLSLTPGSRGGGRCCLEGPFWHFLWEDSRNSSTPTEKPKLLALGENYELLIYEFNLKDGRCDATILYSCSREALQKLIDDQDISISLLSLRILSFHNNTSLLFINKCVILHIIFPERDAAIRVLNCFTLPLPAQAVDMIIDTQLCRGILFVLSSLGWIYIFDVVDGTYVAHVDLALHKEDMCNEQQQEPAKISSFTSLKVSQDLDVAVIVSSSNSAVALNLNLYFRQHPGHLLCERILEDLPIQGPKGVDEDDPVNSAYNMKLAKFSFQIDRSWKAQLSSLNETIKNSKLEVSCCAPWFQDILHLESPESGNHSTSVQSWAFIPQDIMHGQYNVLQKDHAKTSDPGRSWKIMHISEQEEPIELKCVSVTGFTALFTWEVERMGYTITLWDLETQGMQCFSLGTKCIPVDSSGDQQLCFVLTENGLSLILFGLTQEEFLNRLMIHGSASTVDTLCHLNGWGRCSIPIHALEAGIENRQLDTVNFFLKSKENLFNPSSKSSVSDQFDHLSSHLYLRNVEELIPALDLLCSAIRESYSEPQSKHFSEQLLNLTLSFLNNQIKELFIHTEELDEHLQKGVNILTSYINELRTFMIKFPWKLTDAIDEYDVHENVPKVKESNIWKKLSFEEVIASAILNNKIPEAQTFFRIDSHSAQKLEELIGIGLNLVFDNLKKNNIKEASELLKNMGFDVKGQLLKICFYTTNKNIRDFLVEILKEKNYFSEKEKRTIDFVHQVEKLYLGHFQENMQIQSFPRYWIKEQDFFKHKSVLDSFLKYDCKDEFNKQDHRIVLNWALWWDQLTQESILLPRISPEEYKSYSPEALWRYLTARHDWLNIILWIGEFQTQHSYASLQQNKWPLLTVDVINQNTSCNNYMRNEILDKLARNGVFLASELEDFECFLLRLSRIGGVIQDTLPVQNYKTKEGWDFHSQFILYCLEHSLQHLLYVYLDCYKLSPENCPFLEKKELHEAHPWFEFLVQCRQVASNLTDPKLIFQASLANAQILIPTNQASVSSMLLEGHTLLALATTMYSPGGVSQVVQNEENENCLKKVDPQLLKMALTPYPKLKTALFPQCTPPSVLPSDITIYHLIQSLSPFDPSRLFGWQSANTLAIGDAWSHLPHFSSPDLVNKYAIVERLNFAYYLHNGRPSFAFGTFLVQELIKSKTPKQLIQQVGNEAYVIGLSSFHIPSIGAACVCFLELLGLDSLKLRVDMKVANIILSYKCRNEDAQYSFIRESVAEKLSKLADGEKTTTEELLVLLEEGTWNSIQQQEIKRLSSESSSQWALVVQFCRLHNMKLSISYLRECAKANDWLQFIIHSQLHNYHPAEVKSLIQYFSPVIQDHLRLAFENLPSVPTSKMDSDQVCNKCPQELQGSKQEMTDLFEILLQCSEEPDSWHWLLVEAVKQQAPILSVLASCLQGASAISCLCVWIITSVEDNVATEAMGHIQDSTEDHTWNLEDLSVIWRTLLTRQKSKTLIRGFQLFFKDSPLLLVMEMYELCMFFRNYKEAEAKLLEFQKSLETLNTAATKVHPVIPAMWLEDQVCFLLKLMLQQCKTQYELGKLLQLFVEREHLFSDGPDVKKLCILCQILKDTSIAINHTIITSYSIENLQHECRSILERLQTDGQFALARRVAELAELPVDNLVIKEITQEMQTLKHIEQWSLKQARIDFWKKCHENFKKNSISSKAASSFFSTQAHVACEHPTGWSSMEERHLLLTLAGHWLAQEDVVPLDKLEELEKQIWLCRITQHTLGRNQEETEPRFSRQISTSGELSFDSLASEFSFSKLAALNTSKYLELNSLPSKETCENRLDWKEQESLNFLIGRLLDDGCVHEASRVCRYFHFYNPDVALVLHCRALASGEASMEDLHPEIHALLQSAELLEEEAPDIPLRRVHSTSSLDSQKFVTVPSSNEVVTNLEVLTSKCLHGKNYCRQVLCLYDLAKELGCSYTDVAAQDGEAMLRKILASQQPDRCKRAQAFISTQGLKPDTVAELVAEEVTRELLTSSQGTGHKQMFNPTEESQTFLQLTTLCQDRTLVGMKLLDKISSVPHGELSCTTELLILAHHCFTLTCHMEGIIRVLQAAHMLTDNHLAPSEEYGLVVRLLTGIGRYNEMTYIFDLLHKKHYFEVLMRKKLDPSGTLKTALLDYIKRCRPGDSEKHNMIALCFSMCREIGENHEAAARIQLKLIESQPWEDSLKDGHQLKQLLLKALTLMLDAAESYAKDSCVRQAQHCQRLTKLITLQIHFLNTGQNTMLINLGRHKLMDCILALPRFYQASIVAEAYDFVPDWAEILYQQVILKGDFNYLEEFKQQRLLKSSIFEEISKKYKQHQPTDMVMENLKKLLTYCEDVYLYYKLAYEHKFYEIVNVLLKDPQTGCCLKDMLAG
# UniProt Q68DK2, whole entry: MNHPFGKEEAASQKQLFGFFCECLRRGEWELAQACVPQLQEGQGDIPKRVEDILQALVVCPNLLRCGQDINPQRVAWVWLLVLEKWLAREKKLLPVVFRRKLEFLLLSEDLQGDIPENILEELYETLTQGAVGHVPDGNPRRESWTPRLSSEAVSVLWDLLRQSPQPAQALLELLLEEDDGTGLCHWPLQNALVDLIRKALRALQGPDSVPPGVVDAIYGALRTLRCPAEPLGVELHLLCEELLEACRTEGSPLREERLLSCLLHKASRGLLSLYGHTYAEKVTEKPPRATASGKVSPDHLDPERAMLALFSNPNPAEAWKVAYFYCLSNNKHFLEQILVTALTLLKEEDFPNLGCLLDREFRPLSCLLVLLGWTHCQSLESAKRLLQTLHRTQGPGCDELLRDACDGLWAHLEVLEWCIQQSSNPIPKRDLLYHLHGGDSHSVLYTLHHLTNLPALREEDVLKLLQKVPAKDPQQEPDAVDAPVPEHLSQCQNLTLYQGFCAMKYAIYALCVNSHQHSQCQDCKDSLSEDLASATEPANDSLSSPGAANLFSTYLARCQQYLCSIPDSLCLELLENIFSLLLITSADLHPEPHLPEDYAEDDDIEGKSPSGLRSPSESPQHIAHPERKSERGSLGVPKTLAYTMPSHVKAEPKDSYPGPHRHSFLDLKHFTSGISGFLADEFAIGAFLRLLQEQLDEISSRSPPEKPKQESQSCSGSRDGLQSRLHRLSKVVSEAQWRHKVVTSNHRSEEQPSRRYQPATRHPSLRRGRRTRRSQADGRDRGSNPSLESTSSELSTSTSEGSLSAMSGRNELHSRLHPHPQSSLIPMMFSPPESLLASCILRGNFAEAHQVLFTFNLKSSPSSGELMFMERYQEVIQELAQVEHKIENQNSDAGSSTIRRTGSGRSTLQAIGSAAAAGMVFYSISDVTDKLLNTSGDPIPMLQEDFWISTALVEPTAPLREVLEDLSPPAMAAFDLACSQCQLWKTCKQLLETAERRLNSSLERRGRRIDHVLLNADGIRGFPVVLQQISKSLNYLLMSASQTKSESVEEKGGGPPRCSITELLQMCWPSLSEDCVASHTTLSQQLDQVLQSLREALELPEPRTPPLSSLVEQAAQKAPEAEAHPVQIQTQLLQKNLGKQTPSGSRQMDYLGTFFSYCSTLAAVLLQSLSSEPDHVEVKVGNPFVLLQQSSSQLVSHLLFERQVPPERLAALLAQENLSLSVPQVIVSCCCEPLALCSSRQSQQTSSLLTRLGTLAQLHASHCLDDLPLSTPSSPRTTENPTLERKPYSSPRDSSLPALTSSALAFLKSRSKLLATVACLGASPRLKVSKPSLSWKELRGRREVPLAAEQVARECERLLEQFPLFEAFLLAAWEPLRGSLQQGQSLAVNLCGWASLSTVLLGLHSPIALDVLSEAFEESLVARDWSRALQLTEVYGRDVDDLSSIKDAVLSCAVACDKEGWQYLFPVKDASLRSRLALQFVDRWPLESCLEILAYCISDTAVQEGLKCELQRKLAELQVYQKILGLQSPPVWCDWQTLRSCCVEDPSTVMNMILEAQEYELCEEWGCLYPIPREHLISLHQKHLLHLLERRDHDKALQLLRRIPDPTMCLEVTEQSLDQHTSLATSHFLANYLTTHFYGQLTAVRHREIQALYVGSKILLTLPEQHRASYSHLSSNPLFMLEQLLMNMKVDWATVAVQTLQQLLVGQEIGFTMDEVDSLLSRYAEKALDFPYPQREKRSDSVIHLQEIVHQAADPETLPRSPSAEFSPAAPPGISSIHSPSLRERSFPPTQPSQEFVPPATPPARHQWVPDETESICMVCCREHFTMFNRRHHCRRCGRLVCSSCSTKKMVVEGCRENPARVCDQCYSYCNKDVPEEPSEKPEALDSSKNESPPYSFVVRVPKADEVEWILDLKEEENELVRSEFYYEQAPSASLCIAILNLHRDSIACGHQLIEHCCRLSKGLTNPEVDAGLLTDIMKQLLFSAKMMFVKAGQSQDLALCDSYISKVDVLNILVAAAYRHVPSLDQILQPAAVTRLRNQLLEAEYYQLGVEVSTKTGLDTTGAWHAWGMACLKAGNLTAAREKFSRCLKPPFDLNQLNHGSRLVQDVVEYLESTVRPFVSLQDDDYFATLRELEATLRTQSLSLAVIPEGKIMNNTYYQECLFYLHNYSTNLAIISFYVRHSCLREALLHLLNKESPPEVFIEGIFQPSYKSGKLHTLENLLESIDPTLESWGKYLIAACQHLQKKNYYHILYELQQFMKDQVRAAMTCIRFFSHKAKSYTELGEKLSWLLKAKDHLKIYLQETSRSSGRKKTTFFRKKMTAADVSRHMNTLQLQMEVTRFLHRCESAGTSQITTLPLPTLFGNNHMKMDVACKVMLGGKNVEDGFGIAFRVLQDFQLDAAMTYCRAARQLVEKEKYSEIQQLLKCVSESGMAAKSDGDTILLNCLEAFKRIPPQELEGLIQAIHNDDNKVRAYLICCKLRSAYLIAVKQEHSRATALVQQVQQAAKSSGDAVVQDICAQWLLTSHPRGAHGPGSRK
# Like-named read-outs stand apart in the source and are kept apart here. These are yes or no findings as the source states them, for the method shown. For some assays here: Binding seen in cells or lysates may run through a third protein. Some entries that bind do so weakly or less than the wild type. For some assays here: Where a sequence is shown, tags or fusion partners need not be part of it.
# B1: human AP5σ5 (residues 1-200) (protein, UniProt Q9NUS5 1-200)
# chain: MVHAFLIHTLRAPNTEDTGLCRVLYSCVFGAEKSPDDPRPHGAERDRLLRKEQILAVARQVESMCRLQQQASGRPPMDLQPQSSDEQVPLHEAPRGAFRLAAENPFQEPRTVVWLGVLSLGFALVLDAHENLLLAEGTLRLLTRLLLDHLRLLAPSTSLLLRADRIEGILTRFLPHGQLLFLNDQFVQGLEKEFSAAWPR
# B2: mouse AP5ζ (residues 1-807), from AP5ζ-GST after TEV digestion (protein, UniProt Q3U829 1-807)
# chain: MFSAGAESLLHQAREIQDEELRRFCSRVTKLLQEAPGPATVDALQRLFLIVSATKYPRRLEKMCVDLLQTTLCLPASPEQLQVLCAAILREMSPFNDLALSCDHTPNTRQLSLVASVLLAQGDRKGEIRCVSQRIFKILENRQPEGPSVRPLLPILSKVIGLAPGILMEDQTNLLSKRLVDWLRYASIQQGLPYSGGFFSTPRTRQPGPITEVDGAVASDFFTVLSTGQHFTEDQWVNMQAFSMLRKWLLHSGPEDPCSPDADDKSELEGSTLSVLSAASTASRLLPPRERLREVAFEYCQRLLEQSNRRALRKGDSDLQKACLVEAVSVLDVLCRQDPSFLYRTLSCLKALHRRLGEDPGSERALVPLAQFFLNHGEAAAMDAEAVYGQLLRGLPSERFHSPTLAFEVIHFCTHNLALFDSHFLSLLRLSFPSLFKFLAWNSPPLTAEFVVLLPALVDAGTAVEMLHALLDLPCLTAALDLQLRSTQTPSERLLWDISLRVPSCLEAFQDPQFQGLFRHLLRTKASGSTERLTPLHQVLKPMASCARVTQCAEAVPVLLQAFFSAVTQTADGALINQLALLLLERSDSLYPVPQYEARVHGVLSSQLLVLCKLKPSLVVELSRELLEFVGSVSSIHSRASVFTCVVWAIGEYLSVTWDKRCTAEQINKFFEALEALLFEVTQSRPLADLPCCPPEVVTALMTTLTKLASRSQDLIPRVSLFLSKMRTLAQNPATSSVHSEEGAESIRTRASELLTLLKMPSVAQFVFTPPAGVCQPRYHRDTNVALPLALRTVSRLVEKEAGLLPG
# B3: GST-AP5β5 (full length)/µ5 subcomplex in Expi293F lysate (complex, UniProt Q2VPB7 1-878; Q8BJ63 1-490)
# chain 1: MGPLSRDAWAQRLGAFRASPSAFMAGPEGEDLGRDLLSDLRSEKLSEQTKVSLLALSMEYPAQLWPDASAAEVAATSLLDTLVLLPPRPSALRRPLLLAATTALAAGGALGPTSGASCRLLPLLLGLAAGSDLGRGFVPASEQRPLQATACECLRELESCKPGLLGGSLGLLRGLLGQEGPVQPLSLLLALALRNTLVLQSRVGAGLGGLLTDKVSPTGGGPWDWTLVEEGDGRLQPQAPSWPAAEEGEGERSLTAREHSPEEARELRAAVIQLLDTSYLLTPVAQAQLLWLLGWALRGLQGQPPALFKPQLVRLLGTAQLTLLHAMLALKAAFGEALFTAQDEALLLRRLTLAAQHPALPPPTHLFYLHCVLSFPENWPLGPEGEEAAPLLLGPQLCRGLLPSLLHDPMALLARLHLLCLLCAEEEEEEKGQLPSPRHYLEELLAGLRQRAALDGGPRALATLCFQASYLVACCLAGQPTVLTPLIHGLAQLYQARPMLAPHFVDLLDQVDSELREPLKVVLRQVVVSRPGRDEALCWHLQMLAKVADGDAQSATLNFLQAAAAHCTNWDLQQGLLRVCRALLRAGVRGGLVDLLQVLARQLEDPDGRDHARLYYILLAHLAAPKLGVALGPSLAAPALASSLVAENQGFVAALMVQEAPALVRLSLGSHRVKGPLPVLKLQPEALEPIYSLELRFRVEGQLYAPLEAVHVPCLCPGRPARPLLLPLQPRCPAPARLDVHALYTTSTGLTCHAHLPPLFVNFADLFLPFPQPPEGAGLGFFEELWDSCLPEGAESRVWCPLGPQGLEGLVSRHLEPFVVVAQPPTSYCVAIHLPPDSKLLLRLEAALADGVPVALRTDDWAVLPLAGDYLRGLAAAV
# chain 2: MALRAVWLIRHEPGTPLGGTVRFSRRYPTVEKRAKAFNGMTYVPVPEDGPFLRALLFQLRLLDDDKDFMERRDGCSRINKTSIYGLSVGGEELWPVIAFLRDSMIYASVPLVEQALSPRPPLISISGVSQGLELLLGIQDFLYSSQKNDTDLHTKLSQLPDLLLQACPLGTLLDANLQNSLNSINSVSVTQPQKQPAWKVGAYKGKAQISISITETVKCMQYGKQDIADTWQVAGTVACKCDLEGVMPAVTISLSLPTNGSPLQDIIVHPCVTSLDSAILTSSSIDTMDDSAFSGPYKFPFTPPLESFNLCHYTSQVPVPPILGSYHMKEEGVQLKVTVNFKLHESVRNNFEVCEAHIPFYNRGPITHLEYKASFGQLEVFREKSLLVWIIGQKFPKSMEISLSGTLTFGVKGHNKQPFDHICIGNTAYIKLNFRIADYTLTGCYADQHSVQVFASGKPKISAYRKLISSDYYIWNSKAPAPVTYASLLP
# B4: human His6-AP5β5, full length (residues 1-878) (protein, UniProt Q2VPB7 1-878)
# chain: B3 chain 1
# B5: human His6-AP5β5 trunk domain (residues 1-632) (domain or fragment, UniProt Q2VPB7 1-632)
# chain: MGPLSRDAWAQRLGAFRASPSAFMAGPEGEDLGRDLLSDLRSEKLSEQTKVSLLALSMEYPAQLWPDASAAEVAATSLLDTLVLLPPRPSALRRPLLLAATTALAAGGALGPTSGASCRLLPLLLGLAAGSDLGRGFVPASEQRPLQATACECLRELESCKPGLLGGSLGLLRGLLGQEGPVQPLSLLLALALRNTLVLQSRVGAGLGGLLTDKVSPTGGGPWDWTLVEEGDGRLQPQAPSWPAAEEGEGERSLTAREHSPEEARELRAAVIQLLDTSYLLTPVAQAQLLWLLGWALRGLQGQPPALFKPQLVRLLGTAQLTLLHAMLALKAAFGEALFTAQDEALLLRRLTLAAQHPALPPPTHLFYLHCVLSFPENWPLGPEGEEAAPLLLGPQLCRGLLPSLLHDPMALLARLHLLCLLCAEEEEEEKGQLPSPRHYLEELLAGLRQRAALDGGPRALATLCFQASYLVACCLAGQPTVLTPLIHGLAQLYQARPMLAPHFVDLLDQVDSELREPLKVVLRQVVVSRPGRDEALCWHLQMLAKVADGDAQSATLNFLQAAAAHCTNWDLQQGLLRVCRALLRAGVRGGLVDLLQVLARQLEDPDGRDHARLYYILLAHLAAPKLGVALG
# Key:
# [1] = target: human SPG11 (spatacsin), full length, N-terminal Twin-Strep-Flag tag (human) (UniProt Q96JI7); experiment: cross-linking
# [2] = target: human SPG11 (spatacsin), full length, N-terminal Twin-Strep-Flag tag (human) (UniProt Q96JI7); experiment: cryo-EM structure
# [3] = target: T1, mouse AP5ζ (residues 1-807), from AP5ζ-GST after TEV digestion (mouse) (UniProt Q3U829); experiment: cryo-EM structure
# T1 sequence: B2 chain
# [4] = target: T2, mouse AP5ζ with N-terminal GST tag and C-terminal Twin-Strep tag (subcomplex purification) (mouse) (UniProt Q3U829); experiment: SEC
# T2 sequence: B2 chain
# [5] = target: T1, mouse AP5ζ (residues 1-807), from AP5ζ-GST after TEV digestion (mouse); experiment: cryo-EM structure; remark: listed apart in the source
# [6] = target: human SPG11 (spatacsin), full length, N-terminal Twin-Strep-Flag tag (human) (UniProt Q96JI7); experiment: cross-linking; remark: listed apart in the source
# [7] = target: human SPG11 (spatacsin), full length, N-terminal Twin-Strep-Flag tag (human) (UniProt Q96JI7); experiment: cryo-EM structure; remark: listed apart in the source
# [8] = target: human SPG11 (spatacsin), full length, N-terminal Twin-Strep-Flag tag (human) (UniProt Q96JI7); experiment: cryo-EM structure; remark: listed apart in the source
# [9] = target: SPG11-SPG15 complex in Expi293F lysate (TSF-SPG11 with MBP-SPG15) (human) (UniProt Q96JI7+Q68DK2); experiment: pull-down
molecule,measurement,setting,value
"human SPG15 (spastizin), full length, from MBP-SPG15 after TEV digestion (from UniProt Q68DK2 1-2539)",binding,[1],binds
"human SPG15 (spastizin), full length, from GST-SPG15 after TEV digestion (from UniProt Q68DK2 1-2539)",binding,[2],binds
B1,binding,[3],binds
same,binding,[4],binds
same,binding,[5],binds
B2,binding,[6],binds
same,binding,[7],binds
same,binding,[8],binds
B3,binding,[9],binds weakly
B4,binding,[7],binds
B5,binding,[8],binds
